For this test, the target named is activation-induced deaminase (AID) (human (endogenous in Raji)) (UniProt Q9GZX7). In words: co-IP; anti-AID antibody (clone EK2/2H5) on Protein G-Sepharose, Raji cell lysate (0.5% IGEPAL or NP40, 150 mM NaCl, 15 U/ml DNase), overnight at 4°C, 12 washes with 300 mM NaCl; Western blot for PARP-1 and AID; cells untreated or treated with 0.1% MMS for 1 h (interaction more pronounced with MMS). A general note: Immunoblotting shows a protein as a band on a membrane.

The chains behind the UniProt entries cited, without tags or fusion partners.
UniProt Q9GZX7: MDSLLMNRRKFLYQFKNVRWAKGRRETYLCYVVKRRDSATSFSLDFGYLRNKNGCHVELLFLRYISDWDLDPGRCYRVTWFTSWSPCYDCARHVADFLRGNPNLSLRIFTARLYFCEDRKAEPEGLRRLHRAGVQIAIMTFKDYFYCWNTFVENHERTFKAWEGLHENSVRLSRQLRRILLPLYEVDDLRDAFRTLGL
UniProt P09874: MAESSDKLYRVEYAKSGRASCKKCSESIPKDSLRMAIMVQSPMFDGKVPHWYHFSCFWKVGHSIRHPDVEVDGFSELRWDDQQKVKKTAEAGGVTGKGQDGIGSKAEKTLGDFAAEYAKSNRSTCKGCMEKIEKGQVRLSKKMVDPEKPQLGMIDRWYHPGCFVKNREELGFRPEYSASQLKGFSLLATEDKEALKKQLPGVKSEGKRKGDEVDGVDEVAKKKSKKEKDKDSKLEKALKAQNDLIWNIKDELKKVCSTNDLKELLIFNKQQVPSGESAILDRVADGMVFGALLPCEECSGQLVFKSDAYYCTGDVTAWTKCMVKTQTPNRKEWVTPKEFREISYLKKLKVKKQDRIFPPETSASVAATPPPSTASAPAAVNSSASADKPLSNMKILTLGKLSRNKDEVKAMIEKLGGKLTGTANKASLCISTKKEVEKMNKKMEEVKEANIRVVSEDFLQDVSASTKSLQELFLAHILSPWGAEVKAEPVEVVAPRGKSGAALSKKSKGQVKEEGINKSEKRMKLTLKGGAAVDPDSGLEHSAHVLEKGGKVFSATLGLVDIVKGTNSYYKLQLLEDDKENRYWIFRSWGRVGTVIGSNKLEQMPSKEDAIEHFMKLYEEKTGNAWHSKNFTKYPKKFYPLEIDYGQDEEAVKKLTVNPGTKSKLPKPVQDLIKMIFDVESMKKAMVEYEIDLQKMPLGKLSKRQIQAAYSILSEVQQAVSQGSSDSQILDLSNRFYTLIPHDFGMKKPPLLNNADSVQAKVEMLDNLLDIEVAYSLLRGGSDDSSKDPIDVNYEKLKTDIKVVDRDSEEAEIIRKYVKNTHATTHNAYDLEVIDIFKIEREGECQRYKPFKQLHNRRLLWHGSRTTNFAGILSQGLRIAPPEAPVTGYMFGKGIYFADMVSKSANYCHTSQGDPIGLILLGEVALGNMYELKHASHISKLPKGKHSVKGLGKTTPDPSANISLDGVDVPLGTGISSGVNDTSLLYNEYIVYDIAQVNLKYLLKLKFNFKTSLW

No constants are given. Whether binding was seen depends on the method and setting. In cells and extracts the contact can be indirect. Some results given as binding are weak or reduced against the parent protein; the word gives no strength.

For “poly(ADP-ribose) polymerase-1 (PARP-1) (from UniProt P09874 1-1014) (enzyme)”, the binding entry is “binds”.

The values above are taken from publication PMC6698665.
